Publication doi:10.1101/2023.10.20.563357
Results are given in words; binding and its absence hold for the method and conditions named. Binding seen in cells or lysates may run through a third protein. Some binding calls cover weakened binding; strength is not graded here.

Target: MBP-tagged PHF21A-c from insect cells (UniProt Q96BD5)
Assay: pull-down + SEC

## CoREST, recombinant from insect cells (from UniProt Q9UKL0 1-485)
  binding: binds
